From publication PMC7819943, “Rice protein-binding microarrays: a tool to detect cis-acting elements near promoter regions in rice” come the findings set out here.

Amino acid sequences for entries named in this document (tags omitted).
UniProt Q0JBA9, entry or part of it: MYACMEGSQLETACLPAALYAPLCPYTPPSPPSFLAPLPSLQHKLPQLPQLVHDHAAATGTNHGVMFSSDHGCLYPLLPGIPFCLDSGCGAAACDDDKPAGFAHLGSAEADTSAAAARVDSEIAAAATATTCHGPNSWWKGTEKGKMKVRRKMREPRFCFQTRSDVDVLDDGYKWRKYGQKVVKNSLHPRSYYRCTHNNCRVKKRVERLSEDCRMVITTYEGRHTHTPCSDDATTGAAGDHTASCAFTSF

This is one part of the list.

The experiment concerns the target OsWRKY34 (Oryza sativa, UniProt Q0JBA9 1-250). The experiment can be described thus: protein-binding microarray (RPBM); PBS, 2% BSA, 51.3 ng/ul salmon testes DNA, 50 uM zinc acetate, 200 nM TF, 25 C, 1 h; high values mean tight binding. The note with it: protein: recombinant; tags: N-terminal polyhistidine and DsRed monomer fusion (pET32a); label: CyDye5-dUTP incorporated in the synthesized complementary strand; 3' TTTTT single-stranded linker to array surface; dsDNA, one strand shown. The method, boiled down:
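Transcription factors were made in E. coli BL21-CodonPlus as N-terminal fusions to a polyhistidine tag and DsRed, then purified on Ni–NTA. After primer extension with Cy5-dUTP and blocking with 2% BSA, a custom Agilent array was exposed for 1 h at 25 °C to 200 nM protein in PBS, 2% BSA, salmon testes DNA and 50 µM zinc acetate. Washed arrays were scanned on an Axon 4000B, and the binding signal is per-feature fluorescence intensity in arbitrary units.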
With “TAGGTTGGGTTTTTTTGGGACGGAGGGAGTACAGGTTTATCGGAGTCACCTAGTGCAG”, the binding signal was 8830 fluorescence intensity (a.u.).
Next, “CATTATCATCATCTCCGGGTGGGAGAATCAGCGCATATAACGGAGTCACCTAGTGCAG”: 8320 fluorescence intensity (a.u.).
As to “GTGCATTTGTAGGGGTGTTAGTGTGGTGTTACGTGCGTAGCGGAGTCACCTAGTGCAG”, the binding signal is 9290 fluorescence intensity (a.u.).
Consider “CAAGCGATCCATCTCTCCTTAGCCACACCCCAACTTTAACCGGAGTCACCTAGTGCAG”, for which the binding signal was 9250 fluorescence intensity (a.u.).
Take “CGCATAATACTTTTACTTGCACCAATCAAGTACACGCTCTCGGAGTCACCTAGTGCAG”: the binding signal is 9320 fluorescence intensity (a.u.).
In the case of “CCCAGCTGCGTTTTTTTTAACCCCTCGCCCTTCTATAAATCGGAGTCACCTAGTGCAG”, the binding signal is 9250 fluorescence intensity (a.u.).
To “GCAACGTTTCTTGGCTCTGCTGTTGTCTCCCCGCTTTAATCGGAGTCACCTAGTGCAG” belongs 8750 fluorescence intensity (a.u.); to “CCTAAATGTTTGACTCCGTTGACTTTTTTAAACATGTCTGCGGAGTCACCTAGTGCAG”, 26100 fluorescence intensity (a.u.).
Next, “TCTGTTCTCTTGTGCATTCTGTTTTTTCTAATCGTACACCCGGAGTCACCTAGTGCAG”: 10700 fluorescence intensity (a.u.).
To “ACACACATGATCCGGCTTCCAATCAACACGATCCAAACCCCGGAGTCACCTAGTGCAG” belongs 8410 fluorescence intensity (a.u.).
With “CACCCCTATCTGCTACATTACTACTCCCTCCGTCCCATAACGGAGTCACCTAGTGCAG”, the binding signal is 8930 fluorescence intensity (a.u.).
Turning to “AACACAGATCACCCAAATATGCGACTACTGTTGAAGTCTTCGGAGTCACCTAGTGCAG”, the binding signal is 8160 fluorescence intensity (a.u.).
To “GATCCGACCAACTCACCACCACCCGCAGCGCCGCCACCGGCGGAGTCACCTAGTGCAG” belongs 8160 fluorescence intensity (a.u.); to “CTTCTCCTTTTCGATCAATCAGTCTCTTTCTCTTTGTCATCGGAGTCACCTAGTGCAG”, 8370 fluorescence intensity (a.u.); to “AGTCCATGTATGTTCGCTACTTCGCTTGCGTCTCGACAACCGGAGTCACCTAGTGCAG”, 11200 fluorescence intensity (a.u.).
Next, “TTTTTATTAGTGCCCGAACATCCCATGCGATACCCTATGTCGGAGTCACCTAGTGCAG”: 9260 fluorescence intensity (a.u.); “AAACCTTCCGTATTGCCTATGAGACAGGTTAGTTATCCTCCGGAGTCACCTAGTGCAG”: 8320 fluorescence intensity (a.u.); “TTGGAGCGGTTTTGTCTTCTCGCACAGGCATGTTGGAGCTCGGAGTCACCTAGTGCAG”: 11000 fluorescence intensity (a.u.).
For the sequence “TTTCTTTCAACAATTCAACACAACACACTACCCTGTCTTTCGGAGTCACCTAGTGCAG”, the binding signal was 8040 fluorescence intensity (a.u.).
To “CGCCATTTTACGCCTCACTCTCCTCCTCCACCTCCACCACCGGAGTCACCTAGTGCAG” belongs 9840 fluorescence intensity (a.u.); to “TACTCCTAGTCCAGTTTTTATGCACTAATGAATTTCTCTACGGAGTCACCTAGTGCAG”, 8350 fluorescence intensity (a.u.).
Next, “CTCCTCTTCGTCTCCATCGCCATCCACCGCGCCGTCGCCCCGGAGTCACCTAGTGCAG”: 8070 fluorescence intensity (a.u.); “CCTGCAAGCCTCTGCCTCAACCACCACATCCCAGCCGCCACGGAGTCACCTAGTGCAG”: 9000 fluorescence intensity (a.u.).
To “ATTACTTTCTGTTATTTATGTATTTGGAGTTTTGTTTGTACGGAGTCACCTAGTGCAG” belongs 9390 fluorescence intensity (a.u.); to “TCCTCGCGTACTGTTTTATTGGTCTATCCGCGATCAGTGGCGGAGTCACCTAGTGCAG”, 8290 fluorescence intensity (a.u.).
Turning to “GAGGGATGATCCATTTTGACTAGCACAGTCTCTTGCCCCTCGGAGTCACCTAGTGCAG”, the binding signal was 8410 fluorescence intensity (a.u.).
To “CATTCCCCTGCCAGATCCAACGCCATTGGTCAACGACCTGCGGAGTCACCTAGTGCAG” belongs 8430 fluorescence intensity (a.u.); to “CGATTATTTCACTAGAGGCAACCATACTGCTACCAAATCCCGGAGTCACCTAGTGCAG”, 10200 fluorescence intensity (a.u.); to “CCGTAATTATTTTTTCTTTGACCGTGTCGTGCCGGCTAACCGGAGTCACCTAGTGCAG”, 10700 fluorescence intensity (a.u.).
Next, “CGTCCAACCCACAACCTTCGTCCGCACACGTTTCCCGATACGGAGTCACCTAGTGCAG”: 8330 fluorescence intensity (a.u.); “CGTCTCCTCCGCTTTTTGCTTCGCCATTTGATTTTTTTGCCGGAGTCACCTAGTGCAG”: 8620 fluorescence intensity (a.u.).
For “TAGCTCGTGCCTGTCTGGTCCGGCCAGCCCTGCGTTCCCGCGGAGTCACCTAGTGCAG”, the binding signal was 8890 fluorescence intensity (a.u.).
Consider “TACATCATTCCAAATATTGTTAAATTTAAAGTTCATCCATCGGAGTCACCTAGTGCAG”, for which the binding signal was 8580 fluorescence intensity (a.u.).
Take “CTTGTGTTGGCTGTTGTTGTGTGTGTGCTGTCGTTTTCTTCGGAGTCACCTAGTGCAG”: the binding signal was 9340 fluorescence intensity (a.u.).
To “CCCCTTCTCACACTATACCGATACTCCAATATTTCTTTTCCGGAGTCACCTAGTGCAG” belongs 9770 fluorescence intensity (a.u.).
To “GTTCCACCCCTCGCCGCCGCCGGCTTCCTCTGGGCCCTCTCGGAGTCACCTAGTGCAG” belongs 11700 fluorescence intensity (a.u.).
Turning to “CTGTGCCAGGGAGAGAGGTTTCATTCCTTTTTATGTGTTTCGGAGTCACCTAGTGCAG”, the binding signal was 9400 fluorescence intensity (a.u.).
To “TCTCTCTGCGACAGCCATCGCCACCGACTTCTTCGTCTTCCGGAGTCACCTAGTGCAG” belongs 8520 fluorescence intensity (a.u.); to “TATTCCTTATTTTTTAATTCCGAATTTCAGCTATTTCTAACGGAGTCACCTAGTGCAG”, 11000 fluorescence intensity (a.u.); to “GTGTCATGTCGTGCTTGGGTCGGGCCGTCGGGCCTCGAGACGGAGTCACCTAGTGCAG”, 10900 fluorescence intensity (a.u.).
Turning to “AGACACCTACTCCTACTAGTACTAGTACTACCACCATCTCCGGAGTCACCTAGTGCAG”, the binding signal was 9060 fluorescence intensity (a.u.).
To “CCCAGTTTTTGCACTAGTTTAGCATTAGTACTTAATTTCACGGAGTCACCTAGTGCAG” belongs 8280 fluorescence intensity (a.u.).
